Percent effect of library compounds

The chains behind the UniProt entries cited, without tags or fusion partners. Residues count along the entry.
UniProt P9WPC5, whole entry: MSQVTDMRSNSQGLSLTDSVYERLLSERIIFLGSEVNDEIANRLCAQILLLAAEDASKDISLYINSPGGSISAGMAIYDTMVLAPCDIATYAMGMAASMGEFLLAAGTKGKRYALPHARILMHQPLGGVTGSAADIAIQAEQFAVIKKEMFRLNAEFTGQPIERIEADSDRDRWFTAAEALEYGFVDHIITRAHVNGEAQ
UniProt P9WPC3, whole entry partner: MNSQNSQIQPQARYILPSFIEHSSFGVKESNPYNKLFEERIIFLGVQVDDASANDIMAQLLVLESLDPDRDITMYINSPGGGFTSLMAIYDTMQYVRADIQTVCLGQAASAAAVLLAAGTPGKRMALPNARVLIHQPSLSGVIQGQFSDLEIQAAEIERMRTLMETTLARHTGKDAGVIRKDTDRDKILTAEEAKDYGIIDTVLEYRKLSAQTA
UniProt Q4DA54, 1-478: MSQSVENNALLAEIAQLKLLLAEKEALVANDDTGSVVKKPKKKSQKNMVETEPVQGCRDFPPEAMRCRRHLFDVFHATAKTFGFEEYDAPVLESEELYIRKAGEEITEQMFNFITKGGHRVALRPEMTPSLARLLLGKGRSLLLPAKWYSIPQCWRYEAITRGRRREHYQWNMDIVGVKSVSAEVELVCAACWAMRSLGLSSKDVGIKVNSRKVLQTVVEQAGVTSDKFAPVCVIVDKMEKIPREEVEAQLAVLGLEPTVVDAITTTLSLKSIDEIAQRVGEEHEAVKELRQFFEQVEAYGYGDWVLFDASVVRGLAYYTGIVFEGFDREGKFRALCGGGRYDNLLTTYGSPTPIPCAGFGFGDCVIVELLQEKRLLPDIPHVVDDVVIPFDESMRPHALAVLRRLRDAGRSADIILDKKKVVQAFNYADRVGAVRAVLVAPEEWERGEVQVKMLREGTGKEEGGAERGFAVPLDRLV
UniProt I6X8D2, whole entry: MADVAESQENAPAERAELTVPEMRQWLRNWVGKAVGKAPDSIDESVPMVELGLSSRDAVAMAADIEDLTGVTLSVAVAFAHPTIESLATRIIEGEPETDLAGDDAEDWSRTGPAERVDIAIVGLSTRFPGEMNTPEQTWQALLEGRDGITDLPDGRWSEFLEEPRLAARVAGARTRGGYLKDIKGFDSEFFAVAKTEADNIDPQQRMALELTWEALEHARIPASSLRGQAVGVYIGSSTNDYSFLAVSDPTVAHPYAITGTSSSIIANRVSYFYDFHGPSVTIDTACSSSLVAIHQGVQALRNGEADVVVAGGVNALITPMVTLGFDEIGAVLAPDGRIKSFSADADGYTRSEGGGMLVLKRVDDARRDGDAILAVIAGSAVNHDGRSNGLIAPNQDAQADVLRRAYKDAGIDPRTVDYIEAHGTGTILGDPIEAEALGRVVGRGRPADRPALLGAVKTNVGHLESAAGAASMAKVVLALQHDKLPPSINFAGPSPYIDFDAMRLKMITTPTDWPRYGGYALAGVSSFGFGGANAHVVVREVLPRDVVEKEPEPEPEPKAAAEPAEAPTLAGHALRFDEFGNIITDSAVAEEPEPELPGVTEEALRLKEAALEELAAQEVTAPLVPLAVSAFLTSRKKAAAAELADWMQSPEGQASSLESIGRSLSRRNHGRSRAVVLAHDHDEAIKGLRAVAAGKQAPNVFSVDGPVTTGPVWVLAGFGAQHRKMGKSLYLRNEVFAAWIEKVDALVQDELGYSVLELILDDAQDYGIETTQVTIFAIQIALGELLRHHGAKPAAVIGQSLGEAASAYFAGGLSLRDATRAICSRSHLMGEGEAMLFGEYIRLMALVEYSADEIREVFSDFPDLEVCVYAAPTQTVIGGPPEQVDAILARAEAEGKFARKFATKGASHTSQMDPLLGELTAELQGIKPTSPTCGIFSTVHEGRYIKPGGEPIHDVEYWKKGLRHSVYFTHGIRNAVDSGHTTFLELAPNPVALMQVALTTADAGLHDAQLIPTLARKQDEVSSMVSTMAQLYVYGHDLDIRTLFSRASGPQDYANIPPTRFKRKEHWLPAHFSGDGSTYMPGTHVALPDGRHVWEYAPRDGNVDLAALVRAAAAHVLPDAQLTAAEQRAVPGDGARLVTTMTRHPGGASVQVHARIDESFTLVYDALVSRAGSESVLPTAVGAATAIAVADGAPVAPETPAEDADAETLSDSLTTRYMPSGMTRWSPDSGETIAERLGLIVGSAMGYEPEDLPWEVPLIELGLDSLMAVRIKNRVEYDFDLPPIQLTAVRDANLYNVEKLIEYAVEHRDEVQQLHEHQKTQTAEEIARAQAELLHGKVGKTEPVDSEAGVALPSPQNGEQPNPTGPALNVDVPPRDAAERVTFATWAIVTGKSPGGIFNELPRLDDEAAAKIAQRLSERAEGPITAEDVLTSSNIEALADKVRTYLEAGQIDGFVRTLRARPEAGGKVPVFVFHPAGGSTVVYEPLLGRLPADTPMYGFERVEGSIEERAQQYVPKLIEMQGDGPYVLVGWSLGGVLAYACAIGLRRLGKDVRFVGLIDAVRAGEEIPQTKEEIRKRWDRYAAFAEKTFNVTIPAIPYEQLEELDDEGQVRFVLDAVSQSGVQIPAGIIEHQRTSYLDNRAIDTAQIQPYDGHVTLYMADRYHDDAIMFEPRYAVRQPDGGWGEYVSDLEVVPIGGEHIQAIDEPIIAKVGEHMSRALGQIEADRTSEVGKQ
UniProt Q8IDJ8, 1-583: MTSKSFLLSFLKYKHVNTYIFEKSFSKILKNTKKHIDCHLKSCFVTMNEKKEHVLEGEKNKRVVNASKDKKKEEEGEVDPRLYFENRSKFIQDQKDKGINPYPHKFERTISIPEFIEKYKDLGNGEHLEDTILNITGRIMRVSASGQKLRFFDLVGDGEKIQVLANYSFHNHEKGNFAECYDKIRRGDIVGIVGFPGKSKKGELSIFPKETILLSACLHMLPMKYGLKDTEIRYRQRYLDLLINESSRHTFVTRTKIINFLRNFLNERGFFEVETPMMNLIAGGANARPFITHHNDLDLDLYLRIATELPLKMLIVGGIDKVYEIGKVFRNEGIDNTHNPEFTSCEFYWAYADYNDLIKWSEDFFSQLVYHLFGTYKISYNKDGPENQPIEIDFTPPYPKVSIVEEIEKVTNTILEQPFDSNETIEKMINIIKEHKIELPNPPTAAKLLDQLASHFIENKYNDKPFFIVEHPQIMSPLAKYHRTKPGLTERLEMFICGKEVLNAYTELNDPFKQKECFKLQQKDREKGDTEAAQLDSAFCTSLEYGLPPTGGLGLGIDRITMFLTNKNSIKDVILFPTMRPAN

Each number is a percent effect as filed. The record does not define 0% and 100%; most values in the screen are far below 50% and negative numbers occur (in some assays of this library far below -100). Compounds were drawn at random from those tested, without regard to their results. A dash means the value is not listed here; it may have been measured.

ClpP1P2: 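ClpP1P2, Mycobacterium tuberculosis (UniProt P9WPC5 and UniProt P9WPC3). Protease assay of ClpP1P2, read by the AMC dye that it sets free. Concentration: 50 µM. Direction is inferred from only a few compounds that gave an IC50; most scored high, so higher reads as stronger inhibition. Most other retested compounds had strongly negative values. Size under these conditions: about 69,000 compounds, about 10 of them at 50% or above in at least one test.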
Toxoplasma: 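Assay of Toxoplasma gondii numbers, read through their beta-galactosidase reporter with a colour substrate. Concentration: 10 µM. The record gives no direction; the compounds picked for IC50 retests had high values, so higher reads as fewer parasites. Of about 67,000 compounds tested this way, about 260 (0.38%) reached 50% or more in at least one test.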
TcHisRS: 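Histidine-tRNA ligase, Trypanosoma cruzi CL Brener (UniProt Q4DA54). Enzyme assay of histidyl-tRNA synthetase; the read-out is not stated. Compounds at 30 µM. Direction is inferred from retests: higher values go with stronger inhibition. Of about 69,000 compounds tested this way, about 31 (0.045%) reached 50% or more in at least one test.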
Pks13 thioesterase: 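Enzyme assay of the thioesterase domain of polyketide synthase 13; the read-out is not stated. Target: Polyketide synthase Pks13, Mycobacterium tuberculosis (UniProt I6X8D2). Tested at 30 µM. The record gives no direction; the compounds picked for IC50 retests had high values, so higher reads as stronger inhibition. Of about 67,000 compounds tested this way, about 300 (0.46%) reached 50% or more in at least one test.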
PfKRS1: 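Enzyme assay of the cytosolic lysyl-tRNA synthetase in 384-well plates, read by luminescence. Target: Lysine-tRNA ligase, Plasmodium falciparum 3D7 (UniProt Q8IDJ8). Compounds at 30 µM. Higher reads as stronger inhibition, judged from the few compounds that gave an IC50. About 69,000 compounds were tested under these conditions; 0.071% (about 49) showed 50% or more at least once.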

| # | structure | ClpP1P2 | Toxoplasma | TcHisRS | Pks13 thioesterase | PfKRS1 |
|---|---|---|---|---|---|---|
| 1 | `CC(NC(=O)NCCCN(C)S(C)(=O)=O)c1ccc(F)cc1` (stereo not drawn) | -2.092 | 13.1 | -3.38 | -40.16 | -2.926 |
| 2 | `Cc1noc(C)c1CNC1CCN(c2ccccc2OC(F)F)C1` (stereo not drawn) | 4.384 | -3.995 | 8.511 | -10.08 | 3.509 |
| 3 | `CCN(CCO)C[C@@H]1CN(C(=O)c2ccc(C)s2)C[C@@H]1CO` | -12.19 | -6.065 | -3.509 | -40.34 | -0.08263 |
| 4 | `CN(C)c1cc(C2CCCN(Cc3cnn(C)c3)C2)ccn1` (stereo not drawn) | -10.48 | 4.694 | 6.061 | 0.09905 | -1.878 |
| 5 | `CC(C)c1n[nH]c(C2CN(C(=O)CCn3ccccc3=O)CCO2)n1` (stereo not drawn) | 2.939 | -2.981 | 3.383 | -7.586 | 8.88 |
| 6 | `O=c1[nH][nH]cc1-c1ccnc(NCCN2CCCCC2)n1` | 21.82 | 8.648 | 7.91 | 3.718 | 1.221 |
| 7 | `COc1ccc(CN2CCc3ncnc(C4CC4)c3CC2)cc1` | 5.165 | - | 11.06 | -22.24 | 4.188 |
| 8 | `O=C(c1ccc2[nH]c(=O)[nH]c2c1)N1CCC(Nc2cccnn2)CC1` | -4.859 | 4.267 | -1.724 | -9.812 | -1.004 |
| 9 | `CCc1ccc(CNC(=O)NCc2nnc3n2CCC3)s1` | -1.817 | -0.1806 | 1.156 | -13.08 | -0.807 |
| 10 | `Cn1cc(N2CC3(CCN(Cc4nccs4)CC3)OCC2=O)cn1.O=C(O)C(F)(F)F` | - | 66.73 | - | - | - |
| 11 | `CCn1cc(C(=O)N(C)[C@@H]2CC[C@@H](N3CCCC3)[C@@H]2O)c(C)n1` | -10.35 | -31.84 | 9.848 | -2.058 | 0.3415 |
| 12 | `CCN(CC(=O)N(C)C)C(=O)c1cc(-c2cccc(Cl)c2)no1` | -5.755 | 1.829 | -2.02 | -1.506 | 1.046 |
| 13 | `Cc1cc(C(=O)N[C@@H]2CCC[C@@H](N3CCOCC3)[C@@H]2O)no1` | -3.75 | 6.479 | 10.08 | 4.275 | -1.416 |
| 14 | `O=C(CN1CCC(c2ccnn2CCO)CC1)NCC1CC1` | -0.6662 | - | 4.511 | -34.32 | 8.805 |
| 15 | `CC(C)CN1CCN(C)C2(CCN(c3nccs3)CC2)C1=O` | 1.883 | - | 7.595 | 29.87 | 4.257 |
| 16 | `Cc1cc(C)n(NC(=O)c2ccccc2C)c(=O)c1` | -10.08 | -11.86 | 2.312 | 18.92 | 3.231 |
| 17 | `CN(c1ccc(-c2nc(C3CC3)no2)cn1)C1CCOCC1` | 1.13 | 3.55 | 2.89 | - | 1.627 |
| 18 | `Cc1nn(C)c(N2CCOCC2)c1CNC(c1ccccc1)C1CC1` (stereo not drawn) | 11.79 | 12.87 | -0.8772 | -27.02 | 1.607 |
| 19 | `CC(C)CN1CCN(C)C2(CCN(Cc3ccsc3)CC2)C1=O.O=C(O)C(F)(F)F.O=C(O)C(F)(F)F` | - | 3.168 | - | - | - |
| 20 | `COCC1CN(Cc2ccc(OC)cc2)Cc2nn(C)cc21.O=C(O)C(F)(F)F` (stereo not drawn) | - | 19.67 | - | - | - |
| 21 | `c1ccc(C2CCCN2Cc2nnnn2C2CC2)cc1` (stereo not drawn) | -7.676 | 3.14 | 8.943 | -14.25 | -0.03518 |
| 22 | `COc1ccc(C2C3=C(COC3=O)Nc3[nH]nc(C)c32)cc1OC` (stereo not drawn) | -2.107 | -0.9564 | 1.639 | -22.77 | 6.869 |
| 23 | `Cn1ccc(C(=O)N2CCCCC2c2cc(CCO)[nH]n2)n1` (stereo not drawn) | -12.86 | -2.343 | 1.695 | -1.081 | -0.2724 |
| 24 | `CCN(C)C(=O)CN1CCC(c2cc(N3CCOCC3)nc(C)n2)CC1` | -4.349 | -9.22 | 1.02 | - | 5.655 |
| 25 | `COc1cc(CNC(=O)c2c(C)noc2C)ccn1` | -27.52 | -30.82 | 5.917 | -24.03 | 1.069 |
| 26 | `CC(C)n1cnnc1CN(C)Cc1ccoc1` | -11.02 | -5.948 | 3.614 | -3.156 | 0.3878 |
| 27 | `O=C(c1ccsc1)N1CCN2C[C@H](OCc3ccccn3)C[C@H]2C1` | -6.927 | - | 6.863 | -2.938 | 7.971 |
| 28 | `Cc1ncc(CC(=O)N2CCCC(COc3ccc(F)cc3)C2)c(=O)[nH]1` (stereo not drawn) | -5.002 | -6.085 | 2.186 | -19.27 | -0.5613 |
| 29 | `Cn1ccnc1C(=O)NCc1cnc2n1CCN(CC1CC1)CC2.O=C(O)C(F)(F)F.O=C(O)C(F)(F)F` | - | 12.4 | - | - | - |
| 30 | `CC(C)N(C)Cc1cncc2c1CCN(CC1CC1)C2.Cl.Cl.Cl` | - | 0.9125 | - | - | - |
| 31 | `CN1CCN(CC2CC2)C(=O)C12CCN(c1nccs1)CC2` | -0.5488 | -4.261 | 6.329 | -1.065 | 8.64 |
| 32 | `CC[C@H](C)[C@H](NC(=O)Cc1csc(-c2cccc(Cl)c2)n1)C(=O)O` | 6.335 | -8.846 | 2.732 | -18.31 | 7.102 |
| 33 | `O=C(CCC(F)(F)F)NCC1CCCS1` (stereo not drawn) | -9.044 | -2.512 | 2.976 | 6.414 | 0.6546 |
| 34 | `[H][C@]12CN(Cc3nc(C)c[nH]3)CC[C@@]1(O)CCN(C(=O)C1CCC1)C2` | - | 3.21 | - | - | - |
| 35 | `Cn1ccnc1SCCNc1nccc(C(F)(F)F)n1` | -6.006 | -7.428 | -5.747 | 3.136 | -3.174 |
| 36 | `Cc1cc(C(=O)N[C@H]2Cc3ccccc3[C@@H]2N)c(=O)[nH]c1C` | 6.346 | -0.4812 | 5.579 | 38.46 | 6.613 |
| 37 | `Cc1nn(C)c(Cl)c1C1CCCN1c1ncnc2c1CCC2` (stereo not drawn) | -7.715 | -1.436 | 11.23 | -9.308 | -6.884 |
| 38 | `Cc1ccsc1C(=O)N1CCCc2c(c(=O)n(C)n2C)C1` | -2.023 | 0.9029 | 2.151 | -40.31 | -2.358 |
| 39 | `CCn1c(CN(C)C(=O)c2ccc(O)nc2)nc2ccccc21` | -3.802 | 0.7203 | 0.8403 | -8.415 | 7.104 |
| 40 | `COc1ccc(NC(=O)c2cnc(C3CCN(C)CC3)nc2C)cc1` | -17.31 | 4.932 | -0.565 | 10.57 | 0.5517 |
| 41 | `CS(=O)(=O)NCCNC(=O)c1cnc(-c2ccccc2)nc1` | 3.811 | 6.203 | 3.488 | -37.92 | 3.014 |
| 42 | `CCn1c(C(=O)N2CCCN(CC(N)=O)CC2)cc2ccccc21` | -9.845 | 9.808 | 2.286 | 12.02 | 0.5533 |
| 43 | `COc1ccc(N2CCN(C(=O)CCn3nnnc3C)CC2(C)C)cc1` | -5.903 | -4.015 | 1.064 | 1.106 | -6.537 |
| 44 | `CCc1nc(CN(C(C)=O)C2CCN(CCc3ccccc3)C2)no1` (stereo not drawn) | -4.069 | -34.72 | 8 | -12.34 | 1.618 |
| 45 | `Cc1cc(C(F)(F)F)nc(C2COCCN2S(C)(=O)=O)n1` (stereo not drawn) | -14.34 | 16.03 | 1.916 | 5.177 | -0.01424 |
| 46 | `Cc1noc2ncc(C(=O)NCC3CCCO3)cc12` (stereo not drawn) | -36.61 | 18.76 | 1.176 | -9.975 | 0.2402 |
| 47 | `COc1ccc(-c2nc(CN3CCc4cncnc4C3)no2)cc1` | -62.78 | 6.713 | 11.76 | 9.6 | 0.4803 |
| 48 | `CCc1nc(C2CCCN(C(=O)c3cc(C(C)C)[nH]n3)C2)no1` (stereo not drawn) | -19.99 | -15.48 | 1.729 | -16.84 | -0.9139 |
| 49 | `CNc1nc(C(=O)N2CCCn3nc(C(=O)N4CCCC4)cc3C2)cs1` | -1.333 | 4.075 | 6.03 | -1.414 | 1.953 |
| 50 | `CC(=O)N1Cc2ccnn2CC(C(=O)NCc2cccnc2)C1` (stereo not drawn) | 8.428 | - | 5.525 | -12.65 | 7.617 |
| 51 | `CCc1[nH]c2c(CNC(=O)C3CCCN(C)C3)cc(C)cc2c1C` (stereo not drawn) | -29.97 | -46.59 | -7.729 | 11.99 | 0.1963 |
| 52 | `CN1CCc2cc(C(=O)N(C)C)c(NCC3CC3)nc2CC1.O=C(O)C(F)(F)F.O=C(O)C(F)(F)F` | - | 31.04 | - | - | - |
| 53 | `CSCc1noc(CNC(=O)C2CCN(C(=O)C3CC3)CC2)n1` | 8.197 | 8.515 | 4.103 | -12.13 | 4.49 |
| 54 | `O=C(COC(=O)Cc1cccs1)NCc1cccc(NC(=O)C2CC2)c1` | 12.72 | -2.448 | 0.7576 | -0.4078 | 5.218 |
| 55 | `Cn1c(CN2CCCC(N3CCNC3=O)C2)cc(=O)n(C)c1=O` (stereo not drawn) | 5.212 | 4.263 | -0.8772 | -14.8 | 1.726 |
| 56 | `CC(C(=O)NCc1ccc(N2CCN(C)CC2)nc1)n1cccn1` (stereo not drawn) | -17.52 | -26.89 | 5.325 | -10.15 | -0.4872 |
| 57 | `COc1ccc(CCNC(=O)NC2CC(=O)N(c3ccccc3)C2)cc1` (stereo not drawn) | 14.41 | -10.45 | -2.041 | 9.718 | -5.376 |

5 of the entries, repeated:

| structure | ClpP1P2 | Toxoplasma | TcHisRS | Pks13 thioesterase | PfKRS1 |
|---|---|---|---|---|---|
| `Cn1ccnc1SCCNc1nccc(C(F)(F)F)n1` | -6.006 | -7.428 | -5.747 | 3.136 | -3.174 |
| `O=C(CN1CCC(c2ccnn2CCO)CC1)NCC1CC1` | -0.6662 | - | 4.511 | -34.32 | 8.805 |
| `COc1ccc(C2C3=C(COC3=O)Nc3[nH]nc(C)c32)cc1OC` (stereo not drawn) | -2.107 | -0.9564 | 1.639 | -22.77 | 6.869 |
| `CNc1nc(C(=O)N2CCCn3nc(C(=O)N4CCCC4)cc3C2)cs1` | -1.333 | 4.075 | 6.03 | -1.414 | 1.953 |
| `Cc1ccsc1C(=O)N1CCCc2c(c(=O)n(C)n2C)C1` | -2.023 | 0.9029 | 2.151 | -40.31 | -2.358 |

Measurements from “University of Dundee, Small-Polar-MMV Screening Library” (2021), ChEMBL document CHEMBL3988442.